# Screening data

Data taken from PubChem BioAssay AID1347106, deposited by NCATS (2019).

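Wild-type Hh fibroblast control cells treated with compounds for 48 h, with viability read as CellTiter-Glo luminescence and fitted into a concentration-response curve.
Each compound was tested as a dilution series reaching a top concentration of about 46 µM.
The number is the fitted half-maximal potency for cytotoxicity; a lower value means a more potent cell-killing compound.
Calls come from curve class and a score: actives score 40 to 100 and inconclusives 1 to 39, so weak, poorly fitted or single-point curves are inconclusive.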

Values are in µM.
All entries here are filed as inconclusive.
Only part of the assay is shown, chiefly results filed as inconclusive.
A potency from a partial, single-point or poor curve is only a rough figure.
Some entries filed as inconclusive have a full curve.
Activity scores are not listed here.

O=C1NC(=O)C(=Cc2ccc3nccc(-c4ccncc4)c3c2)S1 gave fitted potency 0.4176 µM (cytotoxic, full curve).
Cc1ccc([N+](=O)[O-])[c]2c1[O][Hg]2 gave fitted potency 33.5 µM (cytotoxic, single point).
O=c1[nH]c(=O)n([C@H]2C[C@@H](O)[C@@H](CO)O2)cc1F gave fitted potency 23.48 µM (cytotoxic, single point).
CC(C)(C)c1ccc(O)c(O)c1 gave fitted potency 7.696 µM (cytotoxic, partial curve, poor fit).
Cc1nc(NC(=O)N2CCC[C@@H]2C(N)=O)sc1-c1ccnc(C(C)(C)C(F)(F)F)c1 gave fitted potency 6.619 µM (cytotoxic, partial curve, poor fit).
COc1ccc2cc1Oc1ccc(cc1)C[C@H]1c3c(cc4c(c3Oc3cc5c(cc3OC)CCN(C)[C@@H]5C2)OCO4)CCN1C gave fitted potency 26.61 µM (cytotoxic, single point).
CN[C@@H]1C[C@H]2O[C@@](C)([C@H]1OC)n1c3ccccc3c3c4c(c5c6ccccc6n2c5c31)C(=O)N[C@H]4O gave fitted potency 37.22 µM (cytotoxic, single point).
CC[N+](CC)(CC)CCOc1ccc(/C=C/c2ccccc2)cc1 gave fitted potency 10.59 µM (cytotoxic, partial curve).
O=C(NC1CC1)c1cccc(-c2ccc3c(NC(=O)C4CC4)n[nH]c3c2)c1 gave fitted potency 37.22 µM (cytotoxic, single point).
CC(C)c1c(C(=O)Nc2ccccc2)c(-c2ccccc2)c(-c2ccc(F)cc2)n1CC[C@@H](O)C[C@@H](O)CC(=O)O gave fitted potency 18.84 µM (cytotoxic, single point).
CC(=O)Nc1ccc([C@H](C)C(=O)Nc2ncc(C(C)C)s2)cc1 gave fitted potency 1.663 µM (cytotoxic, partial curve, poor fit).
O=C(Nc1cccc(Br)c1)c1cccc(S(=O)(=O)N2CCCCCC2)c1 gave fitted potency 18.65 µM (cytotoxic, partial curve).
CCCCCN=C(N)N/N=C/c1c[nH]c2ccc(OC)cc12 gave fitted potency 33.5 µM (cytotoxic, single point).

Some entries from above, unchanged:

* O=C(Nc1cccc(Br)c1)c1cccc(S(=O)(=O)N2CCCCCC2)c1 | fitted potency 18.65 µM (cytotoxic, partial curve)
* CC[N+](CC)(CC)CCOc1ccc(/C=C/c2ccccc2)cc1 | fitted potency 10.59 µM (cytotoxic, partial curve)